# Laboratory results taken from PMC7819943, “Rice protein-binding microarrays: a tool to detect cis-acting elements near promoter regions in rice”.
# This is one part of the list.
# Biological target: T1, OsSMF1 (Oryza sativa, UniProt Q6ZLB0 1-436)
# T1 sequence: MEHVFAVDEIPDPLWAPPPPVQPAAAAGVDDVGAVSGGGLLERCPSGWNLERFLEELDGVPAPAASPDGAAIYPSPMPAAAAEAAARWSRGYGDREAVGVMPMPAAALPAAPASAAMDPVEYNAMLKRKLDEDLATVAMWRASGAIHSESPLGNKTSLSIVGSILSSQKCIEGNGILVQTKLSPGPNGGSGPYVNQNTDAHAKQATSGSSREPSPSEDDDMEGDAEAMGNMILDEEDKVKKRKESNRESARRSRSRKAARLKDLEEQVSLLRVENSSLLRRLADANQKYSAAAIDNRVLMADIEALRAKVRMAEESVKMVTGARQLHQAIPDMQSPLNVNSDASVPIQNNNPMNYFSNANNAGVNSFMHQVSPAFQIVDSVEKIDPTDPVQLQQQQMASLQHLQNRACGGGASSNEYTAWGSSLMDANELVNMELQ
# Assay: protein-binding microarray (RPBM); PBS, 2% BSA, 51.3 ng/ul salmon testes DNA, 50 uM zinc acetate, 200 nM TF, 25 C, 1 h; high values mean tight binding
# Conditions: protein: recombinant; tags: N-terminal polyhistidine and DsRed monomer fusion (pET32a); chain copies: 2; label: CyDye5-dUTP incorporated in the synthesized complementary strand; 3' TTTTT single-stranded linker to array surface; dsDNA, one strand shown
# Outline: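 For the binding signal, per-feature fluorescence intensity was read in arbitrary units on an Axon 4000B scanner. Before scanning, a 2% BSA-blocked custom Agilent array made double-stranded with Cy5-dUTP was washed after 1 h at 25 °C with 200 nM protein and 50 µM zinc acetate. The proteins were Ni–NTA-purified transcription factors with N-terminal polyhistidine and DsRed fusions, expressed in E. coli BL21-CodonPlus.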
row,Sequence,binding signal
1,CGTTTTGCTGCAGGATATATGGATGAATACGTGTTATACACGGAGTCACCTAGTGCAG,3340 fluorescence intensity (a.u.)
2,GCAGTTGGTGACTTGGTTCGTTCCGCACACTCCACTCCACCGGAGTCACCTAGTGCAG,3150 fluorescence intensity (a.u.)
3,GGGGATGGGGATTCGATGTGTCTATGCGTGGGCCCTGGTTCGGAGTCACCTAGTGCAG,3860 fluorescence intensity (a.u.)
4,TTTGGTGCGGGGAGCCGTCGATTCGCCACGAAACCCAACCCGGAGTCACCTAGTGCAG,3480 fluorescence intensity (a.u.)
5,CAAGAAACCAAGAACGCTTCTTGGCGTACGTGTCTGCAAACGGAGTCACCTAGTGCAG,5700 fluorescence intensity (a.u.)
6,TACTACCCGTCGTCGTCGTCATCTTCTTCTTCCTGGTATTCGGAGTCACCTAGTGCAG,3600 fluorescence intensity (a.u.)
7,GGTCCAGCTTGTCCCATTGATCTCTCTTCACTGAAATCCACGGAGTCACCTAGTGCAG,12300 fluorescence intensity (a.u.)
8,AAATTAGAGATGATGTGGCTGAAAAGTTATGTGTATGACACGGAGTCACCTAGTGCAG,7570 fluorescence intensity (a.u.)
9,CTTTGCCTCGCCACCGCCCGAGCGGCGCGTCGGCAAAGCCCGGAGTCACCTAGTGCAG,3430 fluorescence intensity (a.u.)
10,TCGATAACGAGACGCCTGTGGTGATTTCGTCGATTAGTACCGGAGTCACCTAGTGCAG,4650 fluorescence intensity (a.u.)
11,AAATGCATCTCTCAACAACAGTGCTTATAAAAGGACAATTCGGAGTCACCTAGTGCAG,4080 fluorescence intensity (a.u.)
12,CACCTAGAGAGTGTCCATGCTACGTCACGCGTGGATGAGACGGAGTCACCTAGTGCAG,8980 fluorescence intensity (a.u.)
13,CAAAATTCTTCTCCTTCCTACGGCCTACGGGTGAAAAGGGCGGAGTCACCTAGTGCAG,18500 fluorescence intensity (a.u.)
14,GTTCCTGGTTTGTGTGACACGTGGGAGAGGGGAATAGTACCGGAGTCACCTAGTGCAG,4900 fluorescence intensity (a.u.)
15,CAGTTTTGTGACCGAATTATGATGCAAAATTTCCACAGGGCGGAGTCACCTAGTGCAG,3910 fluorescence intensity (a.u.)
16,CACGTCGCGCCCATGCACGGTGACACCACGCCACGCCACCCGGAGTCACCTAGTGCAG,8040 fluorescence intensity (a.u.)
17,GCCGTGGCGATGCCTGCGTTGGATCTCTACCTTCGCCTCCCGGAGTCACCTAGTGCAG,32800 fluorescence intensity (a.u.)
18,CCAAGTGTCCGCCGCCGCGTCGTGTCGCGTCGCGTCGCTCCGGAGTCACCTAGTGCAG,3610 fluorescence intensity (a.u.)
19,GGCTCTAGGTCCGCCCATGTTGTGAACTGATGTATCACACCGGAGTCACCTAGTGCAG,3350 fluorescence intensity (a.u.)
20,TTCCCTAAAAGAAATCCATTTGTGGATTGAATCAGCTCAGCGGAGTCACCTAGTGCAG,3460 fluorescence intensity (a.u.)
21,ACACCAACTGTCGTAACGGTCAAAGCACCAACGTACGTCACGGAGTCACCTAGTGCAG,3640 fluorescence intensity (a.u.)

row,Sequence,binding signal
1,AGAAAACCTACACCCCGGGCTTCCGTTGCAACGTGACAACCGGAGTCACCTAGTGCAG,13300 fluorescence intensity (a.u.)
2,GGAGAGCACGCTGATGGTGCTGACTCAAAGGATGAAAGAGCGGAGTCACCTAGTGCAG,4640 fluorescence intensity (a.u.)
3,TTCTCGAGGACTATGAAGACCAAGGAGTCATGAGTAGTGACGGAGTCACCTAGTGCAG,3200 fluorescence intensity (a.u.)
4,TTCCCGGTCTCTTATTATCCATATCATAAGTAAATTAGTTCGGAGTCACCTAGTGCAG,7670 fluorescence intensity (a.u.)
5,CACTATATCAATGACACGTGGGTCTACATGTGTCTATGACCGGAGTCACCTAGTGCAG,7680 fluorescence intensity (a.u.)
6,TGACGAATCTACGGATACGCGACGTGTCACGTGTGCGGCACGGAGTCACCTAGTGCAG,6230 fluorescence intensity (a.u.)
7,CCGGTTCGAACCCCGTGCCGCGTCGGAAGCTTCTGGATCCCGGAGTCACCTAGTGCAG,3240 fluorescence intensity (a.u.)
8,CCGTCCGCGCGTCGTCAAATCACACCCTGCAGCGCCGCCTCGGAGTCACCTAGTGCAG,3270 fluorescence intensity (a.u.)
9,TAATCCCTCCTGTTTGGGACTCTAGGGACTTAAAGTGACTCGGAGTCACCTAGTGCAG,38100 fluorescence intensity (a.u.)
10,CCCGCTGTTCTCTCTCATCTTTTATCTCATTAAAATATGTCGGAGTCACCTAGTGCAG,4450 fluorescence intensity (a.u.)
11,CCATTCTAGACGATGTGGCACCTTATTTGTACGATTTCCGCGGAGTCACCTAGTGCAG,5170 fluorescence intensity (a.u.)
12,AGCGTTCATCAGGACACGTGTACGGTGGAGGTTAATCAGGCGGAGTCACCTAGTGCAG,9840 fluorescence intensity (a.u.)
13,CTGCTGTCTTGCTGATCACACCTTTCCTCGTCGTGGCCGTCGGAGTCACCTAGTGCAG,3150 fluorescence intensity (a.u.)
14,AACACGGCCGCCCTCGCCACGTCTTCCACCTCCAGCGATGCGGAGTCACCTAGTGCAG,6200 fluorescence intensity (a.u.)
15,GGTTTTAATGGGTAGAAGATCTTGACGCATCCTAGTCCACCGGAGTCACCTAGTGCAG,3290 fluorescence intensity (a.u.)
16,CACGGTCAGAGATAAATTTTGGGATTTTGTTTGATGCCAGCGGAGTCACCTAGTGCAG,3230 fluorescence intensity (a.u.)
17,AGGAGAAACACGTCAGCTACAGTGTTGAGCTAGATGAGTGCGGAGTCACCTAGTGCAG,13600 fluorescence intensity (a.u.)
18,ATTCCTTGCCTCCCCACGACGCGTTTCTTCGTGAGCTGTACGGAGTCACCTAGTGCAG,3770 fluorescence intensity (a.u.)
19,AACAAAAGTTGTTTTGACTCACGCGGTGGCTGTTGTCTGTCGGAGTCACCTAGTGCAG,6340 fluorescence intensity (a.u.)
20,ATAATCTCACCCAAAATACACGCAATCTCACGCCATTTGCCGGAGTCACCTAGTGCAG,3310 fluorescence intensity (a.u.)
21,CCCACGGACACCGCGCGCCCCACATAACCCCATGACCCGGCGGAGTCACCTAGTGCAG,3160 fluorescence intensity (a.u.)

# Another view of some results above.
row	Sequence	binding signal
6	TGACGAATCTACGGATACGCGACGTGTCACGTGTGCGGCACGGAGTCACCTAGTGCAG	6230 fluorescence intensity (a.u.)
19	AACAAAAGTTGTTTTGACTCACGCGGTGGCTGTTGTCTGTCGGAGTCACCTAGTGCAG	6340 fluorescence intensity (a.u.)
